Data as given in PMC7819943, “Rice protein-binding microarrays: a tool to detect cis-acting elements near promoter regions in rice”.
The list shows a part of the results.

By UniProt entry, the sequences of proteins in these tests, tags left out.
UniProt Q0JBA9, entry or part of it: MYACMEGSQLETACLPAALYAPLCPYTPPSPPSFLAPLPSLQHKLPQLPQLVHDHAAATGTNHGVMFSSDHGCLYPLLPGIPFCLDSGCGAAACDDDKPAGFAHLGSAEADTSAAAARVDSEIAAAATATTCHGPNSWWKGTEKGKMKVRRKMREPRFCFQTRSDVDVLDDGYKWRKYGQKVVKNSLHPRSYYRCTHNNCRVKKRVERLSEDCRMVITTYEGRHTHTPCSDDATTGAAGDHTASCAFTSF

target: OsWRKY34 (Oryza sativa, UniProt Q0JBA9 1-250); assay: protein-binding microarray (RPBM); PBS, 2% BSA, 51.3 ng/ul salmon testes DNA, 50 uM zinc acetate, 200 nM TF, 25 C, 1 h; high values mean tight binding; details: protein: recombinant; tags: N-terminal polyhistidine and DsRed monomer fusion (pET32a); label: CyDye5-dUTP incorporated in the synthesized complementary strand; 3' TTTTT single-stranded linker to array surface; dsDNA, one strand shown
Procedure, shortened: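 An Axon 4000B scanner gave the binding signal as per-feature fluorescence intensity in arbitrary units. This followed washing of a custom Agilent array that had been incubated for 1 h at 25 °C with 200 nM protein in PBS, 2% BSA, salmon testes DNA and 50 µM zinc acetate. The proteins were transcription factors fused at the N-terminus to polyhistidine and DsRed, expressed in E. coli BL21-CodonPlus and purified on Ni–NTA.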

**Q.** Which binding signal does the source give for “CGTCCATCTCCTTCTCCGCGCGGTGGTTTGACTGCTTTGACGGAGTCACCTAGTGCAG” here?
**A.** 10500 fluorescence intensity (a.u.)

**Q.** How did the binding signal turn out when “GTTTGTTTGTTTTTCTGCGCGCACGCTTCCCGAACTACTACGGAGTCACCTAGTGCAG” was run?
**A.** 12100 fluorescence intensity (a.u.)

**Q.** With “CGATGTTTGAACACCCTGTTATTGCGCTCTTTCCAAATTGCGGAGTCACCTAGTGCAG” as the sequence, how does the binding signal read?
**A.** 8080 fluorescence intensity (a.u.)

**Q.** For “ATTTTTATTCTTTTTTCCCGTCCCTATTTTTTATTCATATCGGAGTCACCTAGTGCAG”, which binding signal is on record?
**A.** 11000 fluorescence intensity (a.u.)

**Q.** How did the binding signal turn out when “ACCCCACAGGTTTAAATTCCTGGCTCCGCCACTGATGCACCGGAGTCACCTAGTGCAG” was run?
**A.** 8470 fluorescence intensity (a.u.)

**Q.** “GATTCCCTTCTTTTCTTTGGTTGATTTCTTTCTGTATTTCCGGAGTCACCTAGTGCAG” was tested. Which binding signal did it give?
**A.** 8280 fluorescence intensity (a.u.)

**Q.** “TATAGGCAGTCCCTTTTTTTATTTCTAATGCCACGTTAACCGGAGTCACCTAGTGCAG” was tested. Which binding signal did it give?
**A.** 10900 fluorescence intensity (a.u.)

**Q.** How did the binding signal turn out when “CATTACATTTGACTCTAATTCCACTACATCATTAGAGTATCGGAGTCACCTAGTGCAG” was run?
**A.** 9550 fluorescence intensity (a.u.)

**Q.** Which binding signal does the source give for “GTGATATGACATGGTTGTTCCATCGACGTGGTATACTATTCGGAGTCACCTAGTGCAG” here?
**A.** 8090 fluorescence intensity (a.u.)

**Q.** Which binding signal does the source give for “CGCCGCCGCATCCTCCTCCTCGCGCCTCTCGCTATCCATGCGGAGTCACCTAGTGCAG” here?
**A.** 8180 fluorescence intensity (a.u.)

**Q.** Which binding signal does the source give for “GTAACTATTGGTTCCTAATATCGGCCCAATCAATTGCGTTCGGAGTCACCTAGTGCAG” here?
**A.** 9780 fluorescence intensity (a.u.)

**Q.** How did the binding signal turn out when “GTCCTGGTGTTCCGATCGATCGACGTGGTGTACATGCATCCGGAGTCACCTAGTGCAG” was run?
**A.** 8330 fluorescence intensity (a.u.)

**Q.** How did the binding signal turn out when “TGTTGTTGTGGTGGTGGTGGTGGTGGTAGTGCGTGAGTGACGGAGTCACCTAGTGCAG” was run?
**A.** 21200 fluorescence intensity (a.u.)

**Q.** How did the binding signal turn out when “CAAAAAAAATTACCGGTTCGTTTCCTTTGTTTATGTAGCCCGGAGTCACCTAGTGCAG” was run?
**A.** 8300 fluorescence intensity (a.u.)

**Q.** Which binding signal does the source give for “AATCTCGTTCCTTGCTGTTGTGACTAGTATCGTTGCCTACCGGAGTCACCTAGTGCAG” here?
**A.** 10500 fluorescence intensity (a.u.)

**Q.** For “GGGTTTTTGGTTTTGGTTTTGATTTTGATTTTGATTTTGACGGAGTCACCTAGTGCAG”, which binding signal is on record?
**A.** 16400 fluorescence intensity (a.u.)

**Q.** How did the binding signal turn out when “TTCTCCTATCTTCAACATTTGCTTTGTTACGTTTTTGACTCGGAGTCACCTAGTGCAG” was run?
**A.** 9560 fluorescence intensity (a.u.)

**Q.** With “GCTTTGCACTCTCCGCGCCCCTCCTGTGTCTTCACGCTTTCGGAGTCACCTAGTGCAG” as the sequence, how does the binding signal read?
**A.** 9370 fluorescence intensity (a.u.)

**Q.** For “AGCTGGTTGGTTGCATGAGACTATTGAAATTCCTAGCGATCGGAGTCACCTAGTGCAG”, which binding signal is on record?
**A.** 8850 fluorescence intensity (a.u.)

**Q.** For “TCGCGTCGCTGGCCGCCACCGCCGGACCTCCCCGTGACTCCGGAGTCACCTAGTGCAG”, which binding signal is on record?
**A.** 8680 fluorescence intensity (a.u.)

**Q.** Which binding signal does the source give for “CCGTCCATCCGCCAACTCATCCAATCTCATCCGTCCATCGCGGAGTCACCTAGTGCAG” here?
**A.** 13900 fluorescence intensity (a.u.)

**Q.** “GCATTCTCATGCCTATCTAATCATAATTTTCTGTTTCATACGGAGTCACCTAGTGCAG” was tested. Which binding signal did it give?
**A.** 8800 fluorescence intensity (a.u.)

**Q.** “CCAATTCGCCATCCGTCTGTCGACCGCATCTTAATATCCGCGGAGTCACCTAGTGCAG” was tested. Which binding signal did it give?
**A.** 17400 fluorescence intensity (a.u.)

**Q.** How did the binding signal turn out when “GTCTCCAAAATGTGTTTCCAGGGCCCTCGTTGCTCTTTTACGGAGTCACCTAGTGCAG” was run?
**A.** 12100 fluorescence intensity (a.u.)

**Q.** “GCTGTTCTTCTTGTCGTCTGTTCTAGCCCATTCTCCGCTGCGGAGTCACCTAGTGCAG” was tested. Which binding signal did it give?
**A.** 14300 fluorescence intensity (a.u.)

**Q.** For “ACGTGTCCATTGTTTTTTTTTTTTTGCCAGTGAAAATTCGCGGAGTCACCTAGTGCAG”, which binding signal is on record?
**A.** 11000 fluorescence intensity (a.u.)

**Q.** Which binding signal does the source give for “TAAAAAGTCAACGGTGTCAAACATTTCGAAACGGAGGGAGCGGAGTCACCTAGTGCAG” here?
**A.** 8970 fluorescence intensity (a.u.)

**Q.** With “CCGTGCAGCTCTCACTTGATCATCTTATCGCTACTCAGCCCGGAGTCACCTAGTGCAG” as the sequence, how does the binding signal read?
**A.** 10100 fluorescence intensity (a.u.)

**Q.** For “GTTCACTGGCTTAATTATCCTATGGATATACTTAGCTTTTCGGAGTCACCTAGTGCAG”, which binding signal is on record?
**A.** 9140 fluorescence intensity (a.u.)

**Q.** How did the binding signal turn out when “ACGGGCGCTAGTGTCGGATCTCGGATGAGAAGATCCACGGCGGAGTCACCTAGTGCAG” was run?
**A.** 10100 fluorescence intensity (a.u.)

**Q.** “GCCGCCCCTGCCCCGCCGGAACCACGCCACGCCCGCCGCCCGGAGTCACCTAGTGCAG” was tested. Which binding signal did it give?
**A.** 8230 fluorescence intensity (a.u.)

**Q.** “AACTCAAATCTGTCTGGTATGCCATCTTGTTCTTGTCTTTCGGAGTCACCTAGTGCAG” was tested. Which binding signal did it give?
**A.** 8960 fluorescence intensity (a.u.)

**Q.** “GGAGGTGGGAGTGGGCAGTGGCTCGGCTCGTCGTCCTGGGCGGAGTCACCTAGTGCAG” was tested. Which binding signal did it give?
**A.** 8780 fluorescence intensity (a.u.)

**Q.** With “GTGGAGCCCACCTATCATTTTCTATTTTTCTTTTGTTTTCCGGAGTCACCTAGTGCAG” as the sequence, how does the binding signal read?
**A.** 10500 fluorescence intensity (a.u.)

**Q.** Which binding signal does the source give for “CTTGACTGGCTTGTTCTCTCTCTCTCCCAGTAACCGATCTCGGAGTCACCTAGTGCAG” here?
**A.** 8440 fluorescence intensity (a.u.)

**Q.** With “TCATTCCTATGTTTTTTCTGTGTTTTGCAATTCTCTGTTTCGGAGTCACCTAGTGCAG” as the sequence, how does the binding signal read?
**A.** 14900 fluorescence intensity (a.u.)

**Q.** “ATACTCTTTTGTACCATATTGTTACAAATTGGACTAGGGGCGGAGTCACCTAGTGCAG” was tested. Which binding signal did it give?
**A.** 8590 fluorescence intensity (a.u.)

**Q.** How did the binding signal turn out when “AGGGTCGGTTTCCTCCTCGGCATTCTATCAAACAGTTCGTCGGAGTCACCTAGTGCAG” was run?
**A.** 8230 fluorescence intensity (a.u.)

**Q.** For “TCTGCATTGTAACTGTATCTGCGTTTGATCTTTGCCGATCCGGAGTCACCTAGTGCAG”, which binding signal is on record?
**A.** 9130 fluorescence intensity (a.u.)

**Q.** For “TTTTTCCTTATCCACCTGGACACGCATATATAATTCACGACGGAGTCACCTAGTGCAG”, which binding signal is on record?
**A.** 8670 fluorescence intensity (a.u.)

**Q.** Which binding signal does the source give for “TCAGTTCGCTCCTTTTCTTTTCTTTTCTTTTCCTTTTTCTCGGAGTCACCTAGTGCAG” here?
**A.** 10000 fluorescence intensity (a.u.)

**Q.** Which binding signal does the source give for “TATTGTGGTGGGAGGAGGTTTGGCTTGTGACGAGCATAGCCGGAGTCACCTAGTGCAG” here?
**A.** 8880 fluorescence intensity (a.u.)

**Q.** “AGGGACAGCAAATAGATCTACTACTCCAGCTCACACACTACGGAGTCACCTAGTGCAG” was tested. Which binding signal did it give?
**A.** 8310 fluorescence intensity (a.u.)

**Q.** “TTTTGCTTGCAACGTTTGACTACTAGTCTTATTTAATTTTCGGAGTCACCTAGTGCAG” was tested. Which binding signal did it give?
**A.** 8680 fluorescence intensity (a.u.)

**Q.** How did the binding signal turn out when “CGTCTCGCCGCCCGTCTCCGGCGGCCGCACGTTGGCATTTCGGAGTCACCTAGTGCAG” was run?
**A.** 8830 fluorescence intensity (a.u.)

**Q.** For “CGCGCGAGACCCGGCCATAATACCGCCTTCTGTTGTTAATCGGAGTCACCTAGTGCAG”, which binding signal is on record?
**A.** 8300 fluorescence intensity (a.u.)

**Q.** How did the binding signal turn out when “TCTTCCGTTGACAGAAACCACATCTCTACTGTAGTTATCTCGGAGTCACCTAGTGCAG” was run?
**A.** 8470 fluorescence intensity (a.u.)

**Q.** With “TCCACGTCACCATGGACGAAGACGCCACCTTCGCCGCCGCCGGAGTCACCTAGTGCAG” as the sequence, how does the binding signal read?
**A.** 8070 fluorescence intensity (a.u.)

**Q.** Which binding signal does the source give for “GATGACCTTGTATGCATAAAATCTTTCTATTGTTTGTTCACGGAGTCACCTAGTGCAG” here?
**A.** 8080 fluorescence intensity (a.u.)

**Q.** With “ACCACTCTCTTTCTCTTCTTGGTAGGTGTTCTTGTCAAACCGGAGTCACCTAGTGCAG” as the sequence, how does the binding signal read?
**A.** 13200 fluorescence intensity (a.u.)

**Q.** Which binding signal does the source give for “CCAGCTTCCTTCTATATCTGTAATTTGCTTATAGCGTCTGCGGAGTCACCTAGTGCAG” here?
**A.** 8400 fluorescence intensity (a.u.)

**Q.** Which binding signal does the source give for “GACTCGCCACCTCACCTACTCACCAGGCTTACTTTCATCACGGAGTCACCTAGTGCAG” here?
**A.** 9460 fluorescence intensity (a.u.)

**Q.** How did the binding signal turn out when “TCTATCTTGGAACATGTCTATTTTTTTTCTCTTCCGGCAACGGAGTCACCTAGTGCAG” was run?
**A.** 9360 fluorescence intensity (a.u.)

**Q.** How did the binding signal turn out when “GCCCTCACCCTCCTCACCTCTGCATCCGCTTTTGTCGCCCCGGAGTCACCTAGTGCAG” was run?
**A.** 8700 fluorescence intensity (a.u.)
